Reference: publication PMC10864387
Results are given in words; binding and its absence hold for the method and conditions named. Binding seen in cells or lysates may run through a third protein. Here binding means that the protein was enriched with, or labelled near, the bait; the list need not be complete. Sequences can lack the tags named with a protein.

Amino acid sequences for entries named in this document (tags omitted).
UniProt P42224: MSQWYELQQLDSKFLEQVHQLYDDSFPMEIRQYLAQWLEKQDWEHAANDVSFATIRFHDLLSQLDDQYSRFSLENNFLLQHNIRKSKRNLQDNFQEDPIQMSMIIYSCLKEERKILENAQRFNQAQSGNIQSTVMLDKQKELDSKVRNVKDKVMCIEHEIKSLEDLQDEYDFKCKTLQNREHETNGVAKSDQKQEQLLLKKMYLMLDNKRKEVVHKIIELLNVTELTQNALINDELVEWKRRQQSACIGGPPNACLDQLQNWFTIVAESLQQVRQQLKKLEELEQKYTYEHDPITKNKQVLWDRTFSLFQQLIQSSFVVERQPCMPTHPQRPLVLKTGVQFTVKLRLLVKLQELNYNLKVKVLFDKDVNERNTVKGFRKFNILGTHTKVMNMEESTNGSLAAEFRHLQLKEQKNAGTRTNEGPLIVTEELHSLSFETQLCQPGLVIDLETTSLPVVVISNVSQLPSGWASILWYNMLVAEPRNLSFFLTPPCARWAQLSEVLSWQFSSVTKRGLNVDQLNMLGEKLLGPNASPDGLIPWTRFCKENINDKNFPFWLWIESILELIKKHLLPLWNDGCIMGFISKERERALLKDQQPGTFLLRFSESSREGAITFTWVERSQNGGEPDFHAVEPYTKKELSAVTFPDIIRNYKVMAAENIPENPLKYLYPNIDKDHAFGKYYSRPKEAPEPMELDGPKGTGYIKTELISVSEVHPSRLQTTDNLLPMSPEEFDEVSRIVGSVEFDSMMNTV

Biological target: T1, Flag-tagged HKDC1 (human) (UniProt Q2TB90)
T1 sequence: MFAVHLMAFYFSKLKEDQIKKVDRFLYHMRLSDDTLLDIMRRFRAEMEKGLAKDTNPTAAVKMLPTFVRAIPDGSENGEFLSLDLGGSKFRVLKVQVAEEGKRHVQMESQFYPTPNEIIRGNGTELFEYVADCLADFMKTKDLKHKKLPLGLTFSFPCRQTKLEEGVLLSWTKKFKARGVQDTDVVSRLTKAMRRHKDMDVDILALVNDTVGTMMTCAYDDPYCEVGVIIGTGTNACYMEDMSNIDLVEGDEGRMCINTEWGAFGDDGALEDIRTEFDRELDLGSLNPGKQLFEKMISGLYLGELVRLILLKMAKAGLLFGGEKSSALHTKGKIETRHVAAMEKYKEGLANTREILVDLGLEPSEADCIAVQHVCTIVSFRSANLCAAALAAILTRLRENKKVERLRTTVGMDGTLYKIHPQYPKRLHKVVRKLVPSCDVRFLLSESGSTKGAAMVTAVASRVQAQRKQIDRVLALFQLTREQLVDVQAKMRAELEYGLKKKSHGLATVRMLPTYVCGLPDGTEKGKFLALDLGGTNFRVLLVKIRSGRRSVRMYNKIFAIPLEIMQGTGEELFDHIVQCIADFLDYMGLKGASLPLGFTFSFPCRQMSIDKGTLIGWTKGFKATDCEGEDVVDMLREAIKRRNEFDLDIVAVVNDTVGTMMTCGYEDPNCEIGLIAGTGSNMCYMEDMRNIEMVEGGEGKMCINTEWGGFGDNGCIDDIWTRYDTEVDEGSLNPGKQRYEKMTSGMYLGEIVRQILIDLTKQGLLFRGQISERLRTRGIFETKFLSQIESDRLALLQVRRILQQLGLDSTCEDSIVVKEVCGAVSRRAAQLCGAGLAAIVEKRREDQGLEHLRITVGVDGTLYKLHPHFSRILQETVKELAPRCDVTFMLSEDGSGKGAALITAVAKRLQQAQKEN
Test: affinity purification with mass spectrometry; IP with antibody targeting Flag-tagged HKDC1 in Hep3B cells, followed by MS identification of candidate partners

binding: binds
Substance: STAT1, endogenous (from UniProt P42224 1-750)
